# Assay results as given in paper PMC7139571.
# Amino acid sequences for entries named in this document (tags omitted). Residues count along the entry.
# UniProt P42771: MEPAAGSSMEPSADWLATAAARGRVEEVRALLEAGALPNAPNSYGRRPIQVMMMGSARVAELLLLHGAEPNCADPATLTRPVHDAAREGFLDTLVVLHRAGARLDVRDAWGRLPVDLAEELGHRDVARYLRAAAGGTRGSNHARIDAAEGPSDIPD
# UniProt O75643: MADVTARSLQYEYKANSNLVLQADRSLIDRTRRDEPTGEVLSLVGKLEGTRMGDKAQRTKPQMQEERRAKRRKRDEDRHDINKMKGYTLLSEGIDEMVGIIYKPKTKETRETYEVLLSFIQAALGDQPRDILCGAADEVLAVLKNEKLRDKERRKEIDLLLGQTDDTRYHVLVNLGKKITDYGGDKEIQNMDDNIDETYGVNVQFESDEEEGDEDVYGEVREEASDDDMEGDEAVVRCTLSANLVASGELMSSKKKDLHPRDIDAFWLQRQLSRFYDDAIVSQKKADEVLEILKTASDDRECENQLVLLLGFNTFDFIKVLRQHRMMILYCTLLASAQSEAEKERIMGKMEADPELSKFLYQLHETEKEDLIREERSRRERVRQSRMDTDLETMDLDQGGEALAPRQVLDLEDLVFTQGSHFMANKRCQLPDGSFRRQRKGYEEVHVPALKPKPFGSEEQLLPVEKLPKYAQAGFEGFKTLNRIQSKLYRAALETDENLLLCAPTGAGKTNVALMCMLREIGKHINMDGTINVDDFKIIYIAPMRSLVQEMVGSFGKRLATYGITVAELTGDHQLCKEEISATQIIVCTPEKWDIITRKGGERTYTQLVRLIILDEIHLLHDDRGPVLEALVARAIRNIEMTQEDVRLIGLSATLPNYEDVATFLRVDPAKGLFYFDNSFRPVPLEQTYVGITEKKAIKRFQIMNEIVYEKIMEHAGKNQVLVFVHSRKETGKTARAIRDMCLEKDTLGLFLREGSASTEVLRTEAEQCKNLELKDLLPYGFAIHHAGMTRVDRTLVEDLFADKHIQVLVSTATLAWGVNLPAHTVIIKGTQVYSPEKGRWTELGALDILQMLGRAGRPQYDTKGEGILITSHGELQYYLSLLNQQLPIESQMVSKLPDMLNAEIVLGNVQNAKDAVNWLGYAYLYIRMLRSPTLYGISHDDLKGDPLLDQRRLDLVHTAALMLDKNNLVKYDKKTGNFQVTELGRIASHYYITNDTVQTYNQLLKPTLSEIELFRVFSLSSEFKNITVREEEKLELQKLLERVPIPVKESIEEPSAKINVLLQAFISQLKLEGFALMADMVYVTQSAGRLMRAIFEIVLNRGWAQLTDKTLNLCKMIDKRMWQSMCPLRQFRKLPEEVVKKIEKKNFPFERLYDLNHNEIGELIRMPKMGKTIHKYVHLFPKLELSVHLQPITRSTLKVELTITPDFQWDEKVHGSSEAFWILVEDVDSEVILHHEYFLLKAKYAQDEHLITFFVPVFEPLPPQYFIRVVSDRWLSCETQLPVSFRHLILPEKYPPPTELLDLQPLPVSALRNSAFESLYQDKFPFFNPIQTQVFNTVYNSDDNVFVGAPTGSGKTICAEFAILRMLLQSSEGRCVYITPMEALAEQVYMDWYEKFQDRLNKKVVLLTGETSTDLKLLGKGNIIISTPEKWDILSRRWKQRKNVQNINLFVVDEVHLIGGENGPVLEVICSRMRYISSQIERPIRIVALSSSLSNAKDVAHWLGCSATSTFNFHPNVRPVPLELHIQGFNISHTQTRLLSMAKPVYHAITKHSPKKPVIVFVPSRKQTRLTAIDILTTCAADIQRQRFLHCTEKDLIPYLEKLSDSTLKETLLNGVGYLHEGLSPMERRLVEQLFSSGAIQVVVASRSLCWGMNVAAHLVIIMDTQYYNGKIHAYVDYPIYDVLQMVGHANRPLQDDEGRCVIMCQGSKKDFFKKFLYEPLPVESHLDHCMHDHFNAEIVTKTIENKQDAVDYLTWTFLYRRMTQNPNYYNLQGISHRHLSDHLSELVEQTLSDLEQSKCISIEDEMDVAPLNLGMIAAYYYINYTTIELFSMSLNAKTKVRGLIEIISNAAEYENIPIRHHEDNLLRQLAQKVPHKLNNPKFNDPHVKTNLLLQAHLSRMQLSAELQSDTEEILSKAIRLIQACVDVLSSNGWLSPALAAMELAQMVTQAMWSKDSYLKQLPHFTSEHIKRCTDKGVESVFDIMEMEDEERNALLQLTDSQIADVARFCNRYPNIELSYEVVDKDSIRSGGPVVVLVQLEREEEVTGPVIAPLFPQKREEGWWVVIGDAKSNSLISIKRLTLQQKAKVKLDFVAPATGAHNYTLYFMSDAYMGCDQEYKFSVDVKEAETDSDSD
# UniProt Q07021, residues 74-282: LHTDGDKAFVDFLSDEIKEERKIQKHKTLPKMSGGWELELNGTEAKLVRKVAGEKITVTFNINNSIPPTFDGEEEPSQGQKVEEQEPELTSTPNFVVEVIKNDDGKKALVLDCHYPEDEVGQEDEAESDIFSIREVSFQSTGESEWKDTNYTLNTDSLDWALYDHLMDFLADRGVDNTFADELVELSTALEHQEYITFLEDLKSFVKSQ
# UniProt O43823: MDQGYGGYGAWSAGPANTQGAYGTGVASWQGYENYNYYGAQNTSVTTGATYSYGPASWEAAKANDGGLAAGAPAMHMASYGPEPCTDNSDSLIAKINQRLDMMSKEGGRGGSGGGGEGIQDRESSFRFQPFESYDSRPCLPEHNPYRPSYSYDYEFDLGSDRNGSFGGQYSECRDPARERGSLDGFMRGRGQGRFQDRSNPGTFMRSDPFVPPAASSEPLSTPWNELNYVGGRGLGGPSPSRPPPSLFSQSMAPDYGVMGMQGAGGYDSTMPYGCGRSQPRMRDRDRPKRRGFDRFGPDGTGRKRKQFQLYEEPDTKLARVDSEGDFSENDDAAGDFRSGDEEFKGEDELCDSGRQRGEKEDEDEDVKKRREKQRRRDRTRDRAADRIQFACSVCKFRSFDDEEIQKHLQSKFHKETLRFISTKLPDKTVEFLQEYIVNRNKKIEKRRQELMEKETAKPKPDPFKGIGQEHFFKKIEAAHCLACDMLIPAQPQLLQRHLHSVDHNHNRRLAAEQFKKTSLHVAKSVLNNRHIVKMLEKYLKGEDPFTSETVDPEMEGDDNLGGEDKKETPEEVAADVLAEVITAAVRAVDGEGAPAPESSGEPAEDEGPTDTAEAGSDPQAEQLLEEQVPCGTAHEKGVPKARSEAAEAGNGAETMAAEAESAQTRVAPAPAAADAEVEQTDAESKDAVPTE
# No constants are given. Whether binding was seen depends on the method and setting. In cells and extracts the contact can be indirect. These calls come from enrichment with a bait or labelling near it, and not all partners need be listed.
# Target: cyclin-dependent kinase inhibitor 2A protein (human (endogenous in SiHa)) (UniProt P42771)
# Assay: affinity purification with mass spectrometry; anti-p16 and IgG immunoprecipitates from SiHa lysate, digested in-gel and in-solution, LC-MS/MS; hits found in both workflows with anti-p16 but not with IgG, FDR < 1%
row,Molecule,binding
1,U5 small nuclear ribonucleoprotein 200 kDa helicase (from UniProt O75643 1-2136),binds
2,"Complement component 1 Q subcomponent-binding protein, mitochondrial (from UniProt Q07021 74-282)",binds
3,A-kinase anchor protein 8 (from UniProt O43823 1-692),binds
4,"ATP-dependent RNA helicase DDX24 (protein, UniProt Q9GZR7 1-859) MKLKDTKSRPKQSSCGKFQTKGIKVVGKWKEVKIDPNMFADGQMDDLVCFEELTDYQLVSPAKNPSSLFSKEAPKRKAQAVSEEEEEEEGKSSSPKKKIKLKKSKNVATEGTSTQKEFEVKDPELEAQGDDMVCDDPEAGEMTSENLVQTAPKKKKNKGKKGLEPSQSTAAKVPKKAKTWIPEVHDQKADVSAWKDLFVPRPVLRALSFLGFSAPTPIQALTLAPAIRDKLDILGAAETGSGKTLAFAIPMIHAVLQWQKRNAAPPPSNTEAPPGETRTEAGAETRSPGKAEAESDALPDDTVIESEALPSDIAAEARAKTGGTVSDQALLFGDDDAGEGPSSLIREKPVPKQNENEEENLDKEQTGNLKQELDDKSATCKAYPKRPLLGLVLTPTRELAVQVKQHIDAVARFTGIKTAILVGGMSTQKQQRMLNRRPEIVVATPGRLWELIKEKHYHLRNLRQLRCLVVDEADRMVEKGHFAELSQLLEMLNDSQYNPKRQTLVFSATLTLVHQAPARILHKKHTKKMDKTAKLDLLMQKIGMRGKPKVIDLTRNEATVETLTETKIHCETDEKDFYLYYFLMQYPGRSLVFANSISCIKRLSGLLKVLDIMPLTLHACMHQKQRLRNLEQFARLEDCVLLATDVAARGLDIPKVQHVIHYQVPRTSEIYVHRSGRTARATNEGLSLMLIGPEDVINFKKIYKTLKKDEDIPLFPVQTKYMDVVKERIRLARQIEKSEYRNFQACLHNSWIEQAAAALEIELEEDMYKGGKADQQEERRRQKQMKVLKKELRHLLSQPLFTESQKTKYPTQSGKPPLLVSAPSKSESALSCLSKQKKKKTKKPKEPQPEQPQPSTSAN",binds
5,"Barrier-to-autointegration factor (protein, UniProt O75531 1-89) MTTSQKHRDFVAEPMGEKPVGSLAGIGEVLGKKLEERGFDKAYVVLGQFLVLKKDEDLFREWLKDTCGANAKQSRDCFGCLREWCDAFL",binds

# Further lines, results first:
row,binding,Molecule
1,binds,"Serine/arginine repetitive matrix protein 1 (protein, UniProt Q8IYB3 1-904) MDAGFFRGTSAEQDNRFSNKQKKLLKQLKFAECLEKKVDMSKVNLEVIKPWITKRVTEILGFEDDVVIEFIFNQLEVKNPDSKMMQINLTGFLNGKNAREFMGELWPLLLSAQENIAGIPSAFLELKKEEIKQRQIEQEKLASMKKQDEDKDKRDKEEKESSREKRERSRSPRRRKSRSPSPRRRSSPVRRERKRSHSRSPRHRTKSRSPSPAPEKKEKTPELPEPSVKVKEPSVQEATSTSDILKVPKPEPIPEPKEPSPEKNSKKEKEKEKTRPRSRSRSKSRSRTRSRSPSHTRPRRRHRSRSRSYSPRRRPSPRRRPSPRRRTPPRRMPPPPRHRRSRSPVRRRRRSSASLSGSSSSSSSSRSRSPPKKPPKRTSSPPRKTRRLSPSASPPRRRHRPSPPATPPPKTRHSPTPQQSNRTRKSRVSVSPGRTSGKVTKHKGTEKRESPSPAPKPRKVELSESEEDKGGKMAAADSVQQRRQYRRQNQQSSSDSGSSSSSEDERPKRSHVKNGEVGRRRRHSPSRSASPSPRKRQKETSPRGRRRRSPSPPPTRRRRSPSPAPPPRRRRTPTPPPRRRTPSPPPRRRSPSPRRYSPPIQRRYSPSPPPKRRTASPPPPPKRRASPSPPPKRRVSHSPPPKQRSSPVTKRRSPSLSSKHRKGSSPSRSTREARSPQPNKRHSPSPRPRAPQTSSSPPPVRRGASSSPQRRQSPSPSTRPIRRVSRTPEPKKIKKAASPSPQSVRRVSSSRSVSGSPEPAAKKPPAPPSPVQSQSPSTNWSPAVPVKKAKSPTPSPSPPRNSDQEGGGKKKKKKKDKKHKKDKKHKKHKKHKKEKAVAAAAAAAVTPAAIAAATTTLAQEEPVAAPEPKKETESEAEDNLDDLEKHLREKALRSMRKAQVSPQS"
2,binds,"Polyadenylate-binding protein 2 (protein, UniProt Q86U42 1-306) MAAAAAAAAAAGAAGGRGSGPGRRRHLVPGAGGEAGEGAPGGAGDYGNGLESEELEPEELLLEPEPEPEPEEEPPRPRAPPGAPGPGPGSGAPGSQEEEEEPGLVEGDPGDGAIEDPELEAIKARVREMEEEAEKLKELQNEVEKQMNMSPPPGNAGPVIMSIEEKMEADARSIYVGNVDYGATAEELEAHFHGCGSVNRVTILCDKFSGHPKGFAYIEFSDKESVRTSLALDESLFRGRQIKVIPKRTNRPGISTTDRGFPRARYRARTTNYNSSRSRFYSGFNSRPRGRVYRGRARATSWYSPY"
3,binds,"Testis-specific Y-encoded-like protein 2 (protein, UniProt Q9H2G4 1-693) MDRPDEGPPAKTRRLSSSESPQRDPPPPPPPPPLLRLPLPPPQQRPRLQEETEAAQVLADMRGVGLGPALPPPPPYVILEEGGIRAYFTLGAECPGWDSTIESGYGEAPPPTESLEALPTPEASGGSLEIDFQVVQSSSFGGEGALETCSAVGWAPQRLVDPKSKEEAIIIVEDEDEDERESMRSSRRRRRRRRRKQRKVKRESRERNAERMESILQALEDIQLDLEAVNIKAGKAFLRLKRKFIQMRRPFLERRDLIIQHIPGFWVKAFLNHPRISILINRRDEDIFRYLTNLQVQDLRHISMGYKMKLYFQTNPYFTNMVIVKEFQRNRSGRLVSHSTPIRWHRGQEPQARRHGNQDASHSFFSWFSNHSLPEADRIAEIIKNDLWVNPLRYYLRERGSRIKRKKQEMKKRKTRGRCEVVIMEDAPDYYAVEDIFSEISDIDETIHDIKISDFMETTDYFETTDNEITDINENICDSENPDHNEVPNNETTDNNESADDHETTDNNESADDNNENPEDNNKNTDDNEENPNNNENTYGNNFFKGGFWGSHGNNQDSSDSDNEADEASDDEDNDGNEGDNEGSDDDGNEGDNEGSDDDDRDIEYYEKVIEDFDKDQADYEDVIEIISDESVEEEGIEEGIQQDEDIYEEGNYEEEGSEDVWEEGEDSDDSDLEDVLQVPNGWANPGKRGKTG"
4,binds,"Type-1 angiotensin II receptor-associated protein (protein, UniProt Q6RW13 1-159) MELPAVNLKVILLGHWLLTTWGCIVFSGSYAWANFTILALGVWAVAQRDSIDAISMFLGGLLATIFLDIVHISIFYPRVSLTDTGRFGVGMAILSLLLKPLSCCFVYHMYRERGGELLVHTGFLGSSQDRSAYQTIDSAEAPADPFAVPEGRSQDARGY"
5,binds,"Pregnancy zone protein (protein, UniProt P20742 26-1482) TEPQYMVLVPSLLHTEAPKKGCVLLSHLNETVTVSASLESGRENRSLFTDLVAEKDLFHCVSFTLPRISASSEVAFLSIQIKGPTQDFRKRNTVLVLNTQSLVFVQTDKPMYKPGQTVRFRVVSVDENFRPRNELIPLIYLENPRRNRIAQWQSLKLEAGINQLSFPLSSEPIQGSYRVVVQTESGGRIQHPFTVEEFVLPKFEVKVQVPKIISIMDEKVNITVCGEYTYGKPVPGLATVSLCRKLSRVLNCDKQEVCEEFSQQLNSNGCITQQVHTKMLQITNTGFEMKLRVEARIREEGTDLEVTANRISEITNIVSKLKFVKVDSHFRQGIPFFAQVLLVDGKGVPIPNKLFFISVNDANYYSNATTNEQGLAQFSINTTSISVNKLFVRVFTVHPNLCFHYSWVAEDHQGAQHTANRVFSLSGSYIHLEPVAGTLPCGHTETITAHYTLNRQAMGELSELSFHYLIMAKGVIVRSGTHTLPVESGDMKGSFALSFPVESDVAPIARMFIFAILPDGEVVGDSEKFEIENCLANKVDLSFSPAQSPPASHAHLQVAAAPQSLCALRAVDQSVLLMKPEAELSVSSVYNLLTVKDLTNFPDNVDQQEEEQGHCPRPFFIHNGAIYVPLSSNEADIYSFLKGMGLKVFTNSKIRKPKSCSVIPSVSAGAVGQGYYGAGLGVVERPYVPQLGTYNVIPLNNEQSSGPVPETVRSYFPETWIWELVAVNSSGVAEVGVTVPDTITEWKAGAFCLSEDAGLGISSTASLRAFQPFFVELTMPYSVIRGEVFTLKATVLNYLPKCIRVSVQLKASPAFLASQNTKGEESYCICGNERQTLSWTVTPKTLGNVNFSVSAEAMQSLELCGNEVVEVPEIKRKDTVIKTLLVEAEGIEQEKTFSSMTCASGANVSEQLSLKLPSNVVKESARASFSVLGDILGSAMQNIQNLLQMPYGCGEQNMVLFAPNIYVLNYLNETQQLTQEIKAKAVGYLITGYQRQLNYKHQDGSYSTFGERYGRNQGNTWLTAFVLKTFAQARSYIFIDEAHITQSLTWLSQMQKDNGCFRSSGSLLNNAIKGGVEDEATLSAYVTIALLEIPLPVTNPIVRNALFCLESAWNVAKEGTHGSHVYTKALLAYAFSLLGKQNQNREILNSLDKEAVKEDNLVHWERPQRPKAPVGHLYQTQAPSAEVEMTSYVLLAYLTAQPAPTSGDLTSATNIVKWIMKQQNAQGGFSSTQDTVVALHALSRYGAATFTRTEKTAQVTVQDSQTFSTNFQVDNNNLLLLQQISLPELPGEYVITVTGERCVYLQTSMKYNILPEKEDSPFALKVQTVPQTCDGHKAHTSFQISLTISYTGNRPASNMVIVDVKMVSGFIPLKPTVKMLERSSSVSRTEVSNNHVLIYVEQVTNQTLSFSFMVLQDIPVGDLKPAIVKVYDYYETDESVVAEYIAPCSTDTEHGNV"
